One test concerns the target T1, Klp5_(436)GST (S. pombe) (UniProt O14343).
T1 sequence: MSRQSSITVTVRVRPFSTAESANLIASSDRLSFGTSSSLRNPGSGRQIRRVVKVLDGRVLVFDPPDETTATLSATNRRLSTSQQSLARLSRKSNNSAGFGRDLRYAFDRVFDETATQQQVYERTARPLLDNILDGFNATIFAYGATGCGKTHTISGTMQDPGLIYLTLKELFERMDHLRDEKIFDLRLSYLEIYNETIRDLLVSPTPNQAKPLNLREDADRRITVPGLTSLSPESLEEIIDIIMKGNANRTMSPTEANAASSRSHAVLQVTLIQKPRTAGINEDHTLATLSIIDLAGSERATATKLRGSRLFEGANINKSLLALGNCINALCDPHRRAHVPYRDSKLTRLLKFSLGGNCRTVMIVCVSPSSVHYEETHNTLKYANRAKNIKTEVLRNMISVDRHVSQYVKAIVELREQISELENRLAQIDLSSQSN
Description: pull-down; co-expressed in E. coli; sequential affinity purification from the bacterial lysate by the His tag (Ni column) and then the GST tag (eluted with 10 mM glutathione); SDS-PAGE, densitometry.

The target of another test is Klp6_(415)His (S. pombe) (UniProt O59751). Description: SEC; Superose-12 HR 10/300 GL at 4°C, 0.5 ml/min, 100 mM PIPES, 200 mM NaCl, 1 mM MgCl2, 2 mM EDTA, pH 6.9; elution compared with Ovalbumin (43 kDa) and Bovine Serum Albumin (67 kDa); both purified.

No constants are given. Whether binding was seen depends on the method and setting. For some assays here: Binding seen in cells or lysates may run through a third protein. Some binding calls cover weakened binding; strength is not graded here. Tags and fused reporters may be left off the sequences shown.

B1: Klp6_(440)His (domain or fragment, S. pombe, UniProt O59751 1-440, looked up)
chain: MKEGSSISVAVRVRPFTEREKGLLAETPKSKEFLGDGSLAVSNTSSNTFCTNGIRKIVRVLDDNVLIFDPPEENPLAKVQKSLLPAGKRFRDVRYAFDRLFGEEASQEDVYKGTTEPLLDSVLQGYNATVFAYGATGCGKTHTISGRPDDPGIIFLTMRALLDRVEGLKRTMNVDISVSYLEIYNEKIRDLLVQDPLSMEKPKSLNICEDAEQNVSVPGLSYFTPTNLEEVMEIIIRGNSNRTMSPTEANAVSSRSHAVLQIYITQTPKSGEKQEESESQNSHKVRSVFSFIDLAGSERASATKNRGKRLVEGANINRSLLALGNCINSLCEPRRRQHVPYRDSKLTRLLKFSLGGNCRTCMIVCISPSSEHYDETHNTLKYGNRAKNIKTKVSRNVVSVDRHVSEYVRTIYELRQKVSILQKRIAEESKQLALNKEVRK
notes: Klp6 of S. pombe, amino acids 1-440: motor domain and complete putative coiled-coil domain; Homodimer by Superose 12 gel filtration; also called Klp6(aa1-440)/GlyGly/6xHis tag; Klp440His; source: E. coli Rosetta 2 (DE3), purified (HisTrap); not shown: His6 (after a GlyGly linker), C-terminal, kept
For the molecule B1, the binding result in the test with Klp5_(436)GST (S. pombe) is “binds”.

B2: Klp6_(415)His (domain or fragment, UniProt O59751 1-415)
chain: MKEGSSISVAVRVRPFTEREKGLLAETPKSKEFLGDGSLAVSNTSSNTFCTNGIRKIVRVLDDNVLIFDPPEENPLAKVQKSLLPAGKRFRDVRYAFDRLFGEEASQEDVYKGTTEPLLDSVLQGYNATVFAYGATGCGKTHTISGRPDDPGIIFLTMRALLDRVEGLKRTMNVDISVSYLEIYNEKIRDLLVQDPLSMEKPKSLNICEDAEQNVSVPGLSYFTPTNLEEVMEIIIRGNSNRTMSPTEANAVSSRSHAVLQIYITQTPKSGEKQEESESQNSHKVRSVFSFIDLAGSERASATKNRGKRLVEGANINRSLLALGNCINSLCEPRRRQHVPYRDSKLTRLLKFSLGGNCRTCMIVCISPSSEHYDETHNTLKYGNRAKNIKTKVSRNVVSVDRHVSEYVRTIYELR
On to B2, for which the binding entry in the test with Klp6_(415)His (S. pombe) was “no binding”.

(Values after publication PMC3282699, “S. pombe Kinesins-8 Promote Both Nucleation and Catastrophe of Microtubules” (PLoS ONE, 2012).)
